{"source": "patent US9757338B2", "about": "(priority 2010, dated 2017)", "origin": "cited, not measured here", "conditions": "in vivo"}
{"smiles": "COc1cc2c(cc1OC)C(=O)C(CC1CCN(Cc3ccccc3)CC1)C2.Cl", "note": "(racemic) [Donepezil, (±)-2,3-dihydro-5,6-dimethoxy-2-[[1-(phenylmethyl)-4-piperidinyl]methyl]-1H-inden-1-one hydrochloride]", "values": [{"measurement": "crossing of the blood-brain barrier", "value": "easily crosses the blood-brain barrier"}]}
